PubChem BioAssay AID1259308, NCATS, 2017
Test: 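Genes whose loss raises luciferase production in HEK293 cells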 (primary screen). System: human HEK293 embryonic kidney cells stably expressing firefly luciferase (HEK-CMV-Luc2-Hygro). Reagents: single siRNA against human genes, 0.8 pmol siRNA per well. Time to read-out: 72 h. Detection: 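Luciferase light (ONE-Glo) measured on one replicate plate set and viability (CellTiter-Glo) on the other, scaled to a negative control siRNA, with robust z-scores and luciferase per cell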. Direction: total luciferase, z-score and total luciferase, % of control: higher = more reporter protein produced. Active means: 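An siRNA counts as active if its total luciferase robust z-score exceeds 3; genes with two or more such siRNAs out of three were retested with fresh siRNAs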. Calls: active = raised luciferase; inactive = no rise.
In all, the deposit lists about 59,000 reagents; below is an unselected part. Of all reagents, about 1,510 (2.6%) were called active. 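Calls use total luciferase alone and ignore viability, so some active siRNAs may act by altering cell number.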 The numbers tell different reagents against one gene apart. Not all columns of the deposit are shown.

For UBE2Z (ubiquitin conjugating enzyme E2 Z) #1 the deposit lists total luciferase, z-score -0.716; total luciferase, % of control 67.6; inactive.
After knock-down of UBE2Z (ubiquitin conjugating enzyme E2 Z) #2, the record shows total luciferase, z-score -0.327; total luciferase, % of control 75.4; inactive.
Depletion of UBE2Z (ubiquitin conjugating enzyme E2 Z) #3 came out at: total luciferase, z-score -2.11; total luciferase, % of control 39.9; inactive.
Depletion of LZTS1 (leucine zipper tumor suppressor 1) #1 resulted in: total luciferase, z-score 1.81; total luciferase, % of control 118; inactive.
LZTS1 (leucine zipper tumor suppressor 1) #2 showed total luciferase, z-score -0.686; total luciferase, % of control 68.2; inactive.
LZTS1 (leucine zipper tumor suppressor 1) #3 scored total luciferase, z-score -0.49; total luciferase, % of control 72.1; inactive.
NR0B2 (nuclear receptor subfamily 0 group B member 2) #1 scored total luciferase, z-score -0.641; total luciferase, % of control 69.1; inactive.
After knock-down of NR0B2 (nuclear receptor subfamily 0 group B member 2) #2 the results were total luciferase, z-score 0.446; total luciferase, % of control 90.7; inactive.
After knock-down of NR0B2 (nuclear receptor subfamily 0 group B member 2) #3 the results were total luciferase, z-score -1.37; total luciferase, % of control 54.7; inactive.
SON (SON DNA and RNA binding protein) #1 showed total luciferase, z-score -2.63; total luciferase, % of control 29.5; inactive.
After knock-down of SON (SON DNA and RNA binding protein) #2, the record shows total luciferase, z-score -2.74; total luciferase, % of control 27.4; inactive.
With knock-down of SON (SON DNA and RNA binding protein) #3, the record shows total luciferase, z-score -3.11; total luciferase, % of control 20.1; inactive.

In a second layout: 2 of the entries above
| target | siRNA no. | total luciferase, z-score | total luciferase, % of control | Outcome |
| --- | --- | --- | --- | --- |
| LZTS1 (leucine zipper tumor suppressor 1) | 1 | 1.81 | 118 | inactive |
| LZTS1 (leucine zipper tumor suppressor 1) | 2 | -0.686 | 68.2 | inactive |
